No signal at the amounts used counts as a negative. Where a protein sequence is shown, tags need not be part of it. For at least one entry, the source does not settle the construct or the ends of the probe. The comparison behind a weaker result is the experiment's own reference, which may not be listed here. At least one verdict was read from the data and is not stated in words by the source.
Target: T1, RadA (Sms) wild type (Escherichia coli) (UniProt P24554)
T1 sequence (looked up): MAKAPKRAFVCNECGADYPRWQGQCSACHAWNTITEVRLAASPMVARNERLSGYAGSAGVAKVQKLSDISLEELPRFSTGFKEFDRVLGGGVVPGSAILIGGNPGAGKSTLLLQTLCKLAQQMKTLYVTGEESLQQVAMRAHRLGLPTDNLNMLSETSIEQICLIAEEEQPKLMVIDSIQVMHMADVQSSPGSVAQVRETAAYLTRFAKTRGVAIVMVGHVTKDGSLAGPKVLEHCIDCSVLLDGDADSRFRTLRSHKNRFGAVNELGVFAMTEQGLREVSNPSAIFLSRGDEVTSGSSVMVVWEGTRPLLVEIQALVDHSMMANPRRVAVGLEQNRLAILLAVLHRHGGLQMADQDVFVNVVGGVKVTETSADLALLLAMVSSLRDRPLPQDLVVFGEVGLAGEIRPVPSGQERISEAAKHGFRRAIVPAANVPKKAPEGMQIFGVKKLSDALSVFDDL
Experiment: EMSA
Details: 50 mM Tris-HCl pH 7.5, 10 mM MgCl2, 0.1 mM EDTA, 75 mM NaCl, 5 mM DTT, 100 ug/ml BSA, 1 mM nucleotide, 100 fmol DNA, 37 C for 20-30 min, recombinant protein, residues 1-460

[1] = very weakly bound, data not shown

CCGCTACCAGTGATCACCAATGGATTGCTAGGACATCTTTGCCCACCTGCAGGTTCACCC / TGGGTGAACCTGCAGGTGGGCAAAGATGTCCTAGCAATCCATTGTCTATGACGTCAAGCT [Fork 1]
binding result [1]: binds more weakly

CCGCTACCAGTGATCACCAATGGATTGCTAGGACATCTTTGCCCACCTGCAGGTTCACCC / TGGGTGAACCTGCAGGTGGGCAAAGATGTCCTAGCAATCCATTGTCTATGACGTCAAGCT / GATCACTGGTAGCGG [Fork 3]
binding result [1]: binds more weakly

TTTTTTTTTTTTTTTTTTTTTTTTTTTTTT [poly(dT)30]
binding result (1 mM AMP-PNP, label: 5' 32P (unlabeled as competitor), single-stranded DNA): no binding | binding result (1 mM ATP, label: 5' 32P (unlabeled as competitor), single-stranded DNA): no binding | binding result (1 mM ATPgS, label: 5' 32P (unlabeled as competitor), single-stranded DNA): no binding | binding result (1 mM dATP, label: 5' 32P (unlabeled as competitor), single-stranded DNA): no binding | binding result (no nucleotide, label: 5' 32P (unlabeled as competitor), single-stranded DNA): no binding

CCGCTACCAGTGATCACCAATGGATTGCTAGGACATCTTTGCCCACCTGCAGGTTCACCC / TGGGTGAACCTGCAGGTGGGCAAAGATGTCCTAGCAATCCATTGTCTATGACGTCAAGCT / AGCTTGACGTCATA / GATCACTGGTAGCGG [Fork 4]
binding result [1]: binds more weakly

CCGCTACCAGTGATCACCAATGGATTGCTAGGACATCTTTGCCCACCTGCAGGTTCACCC / TGGGTGAACCTGCAGGTGGGCAAAGATGTCCTAGCAATCCATTGTCTATGACGTCAAGCT / AGCTTGACGTCATA [Fork 2]
binding result [1]: binds more weakly

CCGCTACCAGTGATCACCAATGGATTGCTAGGACATCTTTGCCCACCTGCAGGTTCACCC / TGGGTGAACCTGCAGGTGGGCAAAGATGTCCTAGCAATCCATTGTCTATGACGTCAAGCT / TGCCGATATTGACAAGACGGCAAAGATGTCCTAGCAATCCATTGGTGATCACTGGTAGCGG [3-stranded fork]
binding result [1]: binds more weakly

— publication PMC4786428, “Recombinational branch migration by the RadA/Sms paralog of RecA in Escherichia coli”
